Assay results taken from publication PMC7924263.

Chains of the proteins cited; added tags and fusions are not shown.
UniProt P0DTD2: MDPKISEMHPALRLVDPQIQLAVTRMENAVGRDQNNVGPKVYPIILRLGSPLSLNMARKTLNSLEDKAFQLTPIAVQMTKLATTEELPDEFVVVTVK

Legend:
Experiment in all cases: proximity labelling
[1] = target: SARS-CoV-2 ORF6, HA-BASU fusion (SARS-CoV-2) (UniProt P0DTC6)
[2] = target: SARS-CoV-2 ORF9b, HA-BASU fusion (SARS-CoV-2) (UniProt P0DTD2)
[3] = target: T1, SARS-CoV-2 ORF6, HA-BASU fusion (SARS-CoV-2), P0DTC6; settings: remark: other sources report otherwise
T1 chain: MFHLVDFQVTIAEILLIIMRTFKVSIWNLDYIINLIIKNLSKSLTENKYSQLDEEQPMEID

[4] = target: SARS-CoV-2 ORF9b, HA-BASU fusion (SARS-CoV-2), P0DTD2; settings: remark: other sources report otherwise

B1: RaeI (protein, UniProt P78406 1-368)
chain: MSLFGTTSGFGTSGTSMFGSATTDNHNPMKDIEVTSSPDDSIGCLSFSPPTLPGNFLIAGSWANDVRCWEVQDSGQTIPKAQQMHTGPVLDVCWSDDGSKVFTASCDKTAKMWDLSSNQAIQIAQHDAPVKTIHWIKAPNYSCVMTGSWDKTLKFWDTRSSNPMMVLQLPERCYCADVIYPMAVVATAERGLIVYQLENQPSEFRRIESPLKHQHRCVAIFKDKQNKPTGFALGSIEGRVAIHYINPPNPAKDNFTFKCHRSNGTNTSAPQDIYAVNGIAFHPVHGTLATVGSDGRFSFWDKDARTKLKTSEQLDQPISACCFNHNGNIFAYASSYDWSKGHEFYNPQKKNYIFLRNAAEELKPRNKK
- binding [1]: binds
- binding [2]: no binding

B2: Nup98, P52948 1-880 (protein)
chain: MFNKSFGTPFGGGTGGFGTTSTFGQNTGFGTTSGGAFGTSAFGSSNNTGGLFGNSQTKPGGLFGTSSFSQPATSTSTGFGFGTSTGTANTLFGTASTGTSLFSSQNNAFAQNKPTGFGNFGTSTSSGGLFGTTNTTSNPFGSTSGSLFGPSSFTAAPTGTTIKFNPPTGTDTMVKAGVSTNISTKHQCITAMKEYESKSLEELRLEDYQANRKGPQNQVGAGTTTGLFGSSPATSSATGLFSSSTTNSGFAYGQNKTAFGTSTTGFGTNPGGLFGQQNQQTTSLFSKPFGQATTTQNTGFSFGNTSTIGQPSTNTMGLFGVTQASQPGGLFGTATNTSTGTAFGTGTGLFGQTNTGFGAVGSTLFGNNKLTTFGSSTTSAPSFGTTSGGLFGNKPTLTLGTNTNTSNFGFGTNTSGNSIFGSKPAPGTLGTGLGAGFGTALGAGQASLFGNNQPKIGGPLGTGAFGAPGFNTTTATLGFGAPQAPVALTDPNASAAQQAVLQQHINSLTYSPFGDSPLFRNPMSDPKKKEERLKPTNPAAQKALTTPTHYKLTPRPATRVRPKALQTTGTAKSHLFDGLDDDEPSLANGAFMPKKSIKKLVLKNLNNSNLFSPVNRDSENLASPSEYPENGERFSFLSKPVDENHQQDGDEDSLVSHFYTNPIAKPIPQTPESAGNKHSNSNSVDDTIVALNMRAALRNGLEGSSEETSFHDESLQDDREEIENNSYHMHPAGIILTKVGYYTIPSMDDLAKITNEKGECIVSDFTIGRKGYGSIYFEGDVNLTNLNLDDIVHIRRKEVVVYLDDNQKPPVGEGLNRKAEVTLDGVWPTDKTSRCLIKSPDRLADINYEGRLEAVSRKQGAQFKEYRPETGSWVFKVSHF
- binding [3]: binds

B3: Mitochondrial Activation of Viral Signaling (MAVS), Q7Z434 1-540 (protein)
chain: MPFAEDKTYKYICRNFSNFCNVDVVEILPYLPCLTARDQDRLRATCTLSGNRDTLWHLFNTLQRRPGWVEYFIAALRGCELVDLADEVASVYQSYQPRTSDRPPDPLEPPSLPAERPGPPTPAAAHSIPYNSCREKEPSYPMPVQETQAPESPGENSEQALQTLSPRAIPRNPDGGPLESSSDLAALSPLTSSGHQEQDTELGSTHTAGATSSLTPSRGPVSPSVSFQPLARSTPRASRLPGPTGSVVSTGTSFSSSSPGLASAGAAEGKQGAESDQAEPIICSSGAEAPANSLPSKVPTTLMPVNTVALKVPANPASVSTVPSKLPTSSKPPGAVPSNALTNPAPSKLPINSTRAGMVPSKVPTSMVLTKVSASTVPTDGSSRNEETPAAPTPAGATGGSSAWLDSSSENRGLGSELSKPGVLASQVDSPFSGCFEDLAISASTSLGMGPCHGPEENEYKSEGTFGIHVAENPSIQLLEGNPGPPADPDGGPRPQADRKFQEREVPCHRPSPGALWLQVAVTGVLVVTLLVVLYRRRLH
- binding [4]: binds

No constants are given. Whether binding was seen depends on the method and setting. Binding seen in cells or lysates may run through a third protein. A yes stands for co-enrichment or nearness to the bait. Other partners may have been found. For some of these results: A no says only that the protein was not detected with the bait. For some of these results: Sequences can lack the tags named with a protein.
